Results are given in words; binding and its absence hold for the method and conditions named. In cells and extracts the contact can be indirect. A yes stands for co-enrichment or nearness to the bait. Other partners may have been found.
B1: Ras-related protein Rab-5b (protein, UniProt Q5ZHW4 1-215)
chain: MTSRGAARPNGQSQASKICQFKLVLLGESAVGKSSLVLRFVKGQFHEYQESTIGAAFLTQSVCLDDTTVKFEIWDTAGQERYHSLAPMYYRGAQAAIVVYDITNQETFARAKTWVKELQRQASPSIVIALAGNKADLASKRMVEYEEAQAYADDNSLLFMETSAKTAMNVNDLFLAIAKKLPKSEPQSTSGAAGRSRGVDLHEQTQQNKSQCCSN
B2: Apolipoprotein A-I (protein, UniProt P08250 19-264)
chain: RSFWQHDEPQTPLDRIRDMVDVYLETVKASGKDAIAQFESSAVGKQLDLKLADNLDTLSAAAAKLREDMAPYYKEVREMWLKDTEALRAELTKDLEEVKEKIRPFLDQFSAKWTEELEQYRQRLTPVAQELKELTKQKVELMQAKLTPVAEEARDRLRGHVEELRKNLAPYSDELRQKLSQKLEEIREKGIPQASEYQAKVMEQLSNLREKMTPLVQEFRERLTPYAENLKNRLISFLDELQKSVA

Molecular target: Flag-tagged TRIM62 (tripartite motif containing 62), chicken (chicken)
Experiment: affinity purification with mass spectrometry; anti-Flag antibody on AminoLink coupling resin (Pierce Co-IP kit); lysate of pTRIM62-transfected CEF cells infected with REV for 72 h; washed three times with RIPA lysis buffer; eluate run on SDS-PAGE, trypsin digestion, LC-MS; control: empty vector, REV-infected

| Binder | binding |
| --- | --- |
| B1 | binds |
| B2 | binds |

Reference: PMC7146716
